Results as given in US6967244B1 (priority 1988, dated 2005).
Read-outs that look alike come from different tables or passages of the source. At least one structure is not confirmed: it was looked up by name or label, or the drawing left a doubt.

Sequences of proteins named here, by UniProt entry; tags and fusion partners are left off. Residues count along the entry.
UniProt P12389, 28-511: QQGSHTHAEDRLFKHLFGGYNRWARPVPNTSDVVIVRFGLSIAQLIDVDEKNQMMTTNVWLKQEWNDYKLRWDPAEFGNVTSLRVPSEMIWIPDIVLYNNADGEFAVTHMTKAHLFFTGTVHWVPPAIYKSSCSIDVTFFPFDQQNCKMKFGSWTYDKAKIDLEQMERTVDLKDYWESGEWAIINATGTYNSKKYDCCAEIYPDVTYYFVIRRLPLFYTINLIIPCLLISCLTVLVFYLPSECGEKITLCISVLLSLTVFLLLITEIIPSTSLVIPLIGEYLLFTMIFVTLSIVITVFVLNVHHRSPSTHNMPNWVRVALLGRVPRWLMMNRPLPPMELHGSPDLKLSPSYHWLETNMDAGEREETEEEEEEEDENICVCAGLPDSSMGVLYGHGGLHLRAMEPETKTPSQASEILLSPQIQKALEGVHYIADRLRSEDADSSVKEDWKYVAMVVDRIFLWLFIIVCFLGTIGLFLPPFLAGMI
UniProt P12390, 25-500: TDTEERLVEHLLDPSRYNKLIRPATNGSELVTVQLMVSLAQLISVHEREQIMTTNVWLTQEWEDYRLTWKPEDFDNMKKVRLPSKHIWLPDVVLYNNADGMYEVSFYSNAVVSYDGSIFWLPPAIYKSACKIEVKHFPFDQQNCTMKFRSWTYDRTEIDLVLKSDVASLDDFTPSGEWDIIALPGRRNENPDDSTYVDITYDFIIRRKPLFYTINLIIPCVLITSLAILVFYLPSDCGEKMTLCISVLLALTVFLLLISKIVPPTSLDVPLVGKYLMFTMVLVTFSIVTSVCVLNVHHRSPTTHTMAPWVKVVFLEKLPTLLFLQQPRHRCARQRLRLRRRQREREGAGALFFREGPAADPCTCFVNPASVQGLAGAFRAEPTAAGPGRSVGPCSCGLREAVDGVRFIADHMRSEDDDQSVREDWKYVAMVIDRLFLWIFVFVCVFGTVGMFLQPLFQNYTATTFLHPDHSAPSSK
UniProt P04757, 26-499: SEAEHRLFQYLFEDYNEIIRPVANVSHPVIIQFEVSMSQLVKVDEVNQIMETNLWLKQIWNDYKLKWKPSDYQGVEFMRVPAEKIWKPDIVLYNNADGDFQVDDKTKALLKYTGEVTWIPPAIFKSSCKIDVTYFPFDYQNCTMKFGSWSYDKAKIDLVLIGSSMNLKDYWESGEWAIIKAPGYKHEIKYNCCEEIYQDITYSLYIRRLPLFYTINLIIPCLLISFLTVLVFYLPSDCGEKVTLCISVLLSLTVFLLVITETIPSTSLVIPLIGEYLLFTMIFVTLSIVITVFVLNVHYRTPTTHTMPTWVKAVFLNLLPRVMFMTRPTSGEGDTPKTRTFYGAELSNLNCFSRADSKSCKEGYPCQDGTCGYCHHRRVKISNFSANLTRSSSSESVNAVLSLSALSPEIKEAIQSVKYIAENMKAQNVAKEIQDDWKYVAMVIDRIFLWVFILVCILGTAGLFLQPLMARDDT
UniProt P12392, 23-495: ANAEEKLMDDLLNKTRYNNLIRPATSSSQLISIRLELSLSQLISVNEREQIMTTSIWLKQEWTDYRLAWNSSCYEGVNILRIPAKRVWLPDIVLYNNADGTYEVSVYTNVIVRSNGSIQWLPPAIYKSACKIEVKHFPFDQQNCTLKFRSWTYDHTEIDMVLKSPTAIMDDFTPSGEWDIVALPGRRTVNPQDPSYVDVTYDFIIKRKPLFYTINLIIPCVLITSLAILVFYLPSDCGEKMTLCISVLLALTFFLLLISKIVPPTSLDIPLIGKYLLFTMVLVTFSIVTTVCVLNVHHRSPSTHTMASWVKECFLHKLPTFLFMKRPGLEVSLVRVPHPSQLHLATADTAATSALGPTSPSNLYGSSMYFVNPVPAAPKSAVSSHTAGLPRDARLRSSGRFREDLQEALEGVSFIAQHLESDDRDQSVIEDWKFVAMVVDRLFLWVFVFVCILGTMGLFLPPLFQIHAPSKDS

Key:
Assay type in all cases: cell-based
alpha2 subunit alone = molecular target: T1, alpha2 subunit alone (Rattus norvegicus, UniProt P12389); assay: Voltage depolarizations in Xenopus oocytes injected with alpha2 mRNA alone; conditions: maximum 1 mM ACh, n=22
T1 construct: only the HYP16 clone contains an open reading frame for the entire alpha2 protein; expressed in transfected cells; host or cells: Xenopus oocytes injected with in vitro transcribed mRNA

beta2 subunit alone = molecular target: T2, beta2 subunit alone (Rattus norvegicus, UniProt P12390); assay: Voltage depolarizations in Xenopus oocytes injected with beta2 RNA alone; conditions: for Depolarizing response to acetylcholine: beta2 RNA alone, maximum 1 mM ACh
T2 construct: expressed in transfected cells; host or cells: Xenopus laevis oocytes injected with in vitro transcribed capped RNA

alpha3 subunit alone = molecular target: T3, alpha3 subunit alone (Rattus norvegicus, UniProt P04757); assay: Voltage depolarizations in Xenopus oocytes injected with alpha3 RNA alone
T3 construct: a complete signal peptide and the entire mature protein; expressed in transfected cells; host or cells: Xenopus laevis oocytes injected with in vitro transcribed capped RNA

alpha3 + beta4 = molecular target: T4, alpha3 + beta4 (Rattus norvegicus, UniProt P04757+P12392); assay: Response to ACh of Xenopus oocytes injected with alpha3 + beta4 RNA
T4 construct: a full-length cDNA was isolated as described above; This clone, pZPC13, was then used as template; expressed in transfected cells; host or cells: Xenopus laevis oocytes injected with in vitro transcribed capped RNA

[1] = molecular target: T5, nAChR formed after the injection of alpha2 and beta2 mRNAs (Rattus norvegicus, UniProt P12389+P12390); conditions: for Δ (mV) Agonist: mean ± s.e.m.
T5 construct: only the HYP16 clone contains an open reading frame for the entire alpha2 protein; expressed in transfected cells; host or cells: Xenopus oocytes injected with in vitro transcribed mRNA
Protocol: Mature Xenopus laevis (Xenopus I, Madison, Wis.) were used as the source of oocytes. Oocytes were treated with 1 mg/ml type II collagenase (Sigma Chemical Co., St. Louis, Mo.) for two hours at room temperature. The ovarian epithelium and follicle cells were then removed by manual dissection. Each oocyte was injected with 0.5 to 5 ng of RNA transcribed and capped with diguanosine triphosphate in vitro, in a 50 nl volume of water. Injected oocytes were incubated in Barth's saline at 20° C. prior to electrophysiological recordings.
Recordings were obtained from oocytes placed in a groove at the base of a narrow perspex chamber of 0.5 ml volume. Oocytes were perfused at up to 40 ml/min. with a control solution that consisted of 10 mM HEPES (pH 7.2), 115 mM NaCl, 1.8 mM CaCl2 2.5 mM KCl, and […] atropine. Then oocytes were perfused with agonists or antagonists (added to the control perfusing solution), followed by a wash with control solution. Voltage recordings were made with the bridge circuit of the Dagan 8500 voltage clamp unit on oocytes injected 2–7 days previously. The recordings were obtained at room temperature (20–25° C.) with micropipettes filled with 3M KCl. A resting potential more negative than −30 mV was required for inclusion of a particular oocyte in these studies.
The PCX49 clone is derived from the beta2 gene and is believed to encode a non-agonist-binding subunit. (Boulter, et al., 1987; Deneris, et al., 1988). […] We tested whether oocytes injected with either alpha2 (n=22) or beta2 (n=21) mRNA alone would produce a depolarizing response to ACh.

alpha2 + beta4 = molecular target: T6, alpha2 + beta4 (Rattus norvegicus, UniProt P12389+P12392); assay: Response to ACh of Xenopus oocytes injected with alpha2 + beta4 RNA
T6 construct: a full-length cDNA was isolated as described above; This clone, pZPC13, was then used as template; expressed in transfected cells; host or cells: Xenopus laevis oocytes injected with in vitro transcribed capped RNA

[2] = molecular target: T7, alpha3 + beta2 neuronal nicotinic acetylcholine receptor (Rattus norvegicus, UniProt P04757+P12390); conditions: for Δ, mV Before toxin: α3 + β2, ±SEM
T7 construct: a complete signal peptide and the entire mature protein; expressed in transfected cells; host or cells: Xenopus laevis oocytes injected with in vitro transcribed capped RNA

## CC(=O)OCC[N+](C)(C)C [acetylcholine]
alpha2 subunit alone
  Depolarizing response to ACh: no responses were found
beta2 subunit alone
  Depolarizing response to acetylcholine: never observed
beta2 subunit alone; listed as ACh
  Depolarizing response to acetylcholine: no responses were found
beta2 subunit alone; beta2 alone, up to 1 mM acetylcholine, 21 tested
  No. of oocytes positive (response to acetylcholine): 0
alpha3 subunit alone; alpha3 alone, up to 1 mM acetylcholine, 30 tested
  No. of oocytes positive (response to acetylcholine): 0
alpha3 subunit alone; alpha3 transcript alone
  Response to acetylcholine: never detected
alpha3 + beta4
  Response to 10^−6 M ACh: yes (Depolarizing responses varied from 10–40 mV)
[1]; Ach 1 μM alone, n=4
  Δ (mV) Agonist: +8 ± 1 mV
[1]; Ach 5 μM alone, n=3
  Δ (mV) Agonist: +19 ± 1 mV
[1]; alpha2 + beta2
  Depolarizing response to acetylcholine: strong and reproducible depolarizing responses
[1]; alpha2 + beta2, ACh 1–10 μM, n=25
  Depolarizing responses to perfused ACh: in all oocytes
[1]; α2β2, 10 μM acetylcholine, negatives retested at 1 mM, 25 tested
  Positive (oocytes with acetylcholine-evoked voltage depolarization): 25
alpha2 + beta4
  Response to 10^−6 M ACh: yes (Depolarizing responses varied from 10–40 mV)
[2]; alpha3 + beta2
  Membrane depolarization in response to acetylcholine: strong and reproducible membrane depolarizations
[2]; alpha3 + beta2, up to 1 mM acetylcholine, 50 tested
  No. of oocytes positive (response to acetylcholine): 46
[2]; AcCho 5 μM, N=3
  Δ, mV Before toxin: 24.0 ± 1.7 mV
[2]; AcCho 10 μM, N=4
  Δ, mV Before toxin: 25.4 ± 3.3 mV
[2]; α3β2, 10 μM acetylcholine, negatives retested at 1 mM, 2–7 days after injection, 50 tested
  Positive (oocytes with acetylcholine-evoked voltage depolarization): 46
